Measurements from patent publication WO2021090922A1.
No constants are given. Whether binding was seen depends on the method and setting. Some results given as binding are weak or reduced against the parent protein; the word gives no strength.

The chains behind the UniProt entries cited, without tags or fusion partners. Residues count along the entry.
UniProt P04114, residues 28-4563: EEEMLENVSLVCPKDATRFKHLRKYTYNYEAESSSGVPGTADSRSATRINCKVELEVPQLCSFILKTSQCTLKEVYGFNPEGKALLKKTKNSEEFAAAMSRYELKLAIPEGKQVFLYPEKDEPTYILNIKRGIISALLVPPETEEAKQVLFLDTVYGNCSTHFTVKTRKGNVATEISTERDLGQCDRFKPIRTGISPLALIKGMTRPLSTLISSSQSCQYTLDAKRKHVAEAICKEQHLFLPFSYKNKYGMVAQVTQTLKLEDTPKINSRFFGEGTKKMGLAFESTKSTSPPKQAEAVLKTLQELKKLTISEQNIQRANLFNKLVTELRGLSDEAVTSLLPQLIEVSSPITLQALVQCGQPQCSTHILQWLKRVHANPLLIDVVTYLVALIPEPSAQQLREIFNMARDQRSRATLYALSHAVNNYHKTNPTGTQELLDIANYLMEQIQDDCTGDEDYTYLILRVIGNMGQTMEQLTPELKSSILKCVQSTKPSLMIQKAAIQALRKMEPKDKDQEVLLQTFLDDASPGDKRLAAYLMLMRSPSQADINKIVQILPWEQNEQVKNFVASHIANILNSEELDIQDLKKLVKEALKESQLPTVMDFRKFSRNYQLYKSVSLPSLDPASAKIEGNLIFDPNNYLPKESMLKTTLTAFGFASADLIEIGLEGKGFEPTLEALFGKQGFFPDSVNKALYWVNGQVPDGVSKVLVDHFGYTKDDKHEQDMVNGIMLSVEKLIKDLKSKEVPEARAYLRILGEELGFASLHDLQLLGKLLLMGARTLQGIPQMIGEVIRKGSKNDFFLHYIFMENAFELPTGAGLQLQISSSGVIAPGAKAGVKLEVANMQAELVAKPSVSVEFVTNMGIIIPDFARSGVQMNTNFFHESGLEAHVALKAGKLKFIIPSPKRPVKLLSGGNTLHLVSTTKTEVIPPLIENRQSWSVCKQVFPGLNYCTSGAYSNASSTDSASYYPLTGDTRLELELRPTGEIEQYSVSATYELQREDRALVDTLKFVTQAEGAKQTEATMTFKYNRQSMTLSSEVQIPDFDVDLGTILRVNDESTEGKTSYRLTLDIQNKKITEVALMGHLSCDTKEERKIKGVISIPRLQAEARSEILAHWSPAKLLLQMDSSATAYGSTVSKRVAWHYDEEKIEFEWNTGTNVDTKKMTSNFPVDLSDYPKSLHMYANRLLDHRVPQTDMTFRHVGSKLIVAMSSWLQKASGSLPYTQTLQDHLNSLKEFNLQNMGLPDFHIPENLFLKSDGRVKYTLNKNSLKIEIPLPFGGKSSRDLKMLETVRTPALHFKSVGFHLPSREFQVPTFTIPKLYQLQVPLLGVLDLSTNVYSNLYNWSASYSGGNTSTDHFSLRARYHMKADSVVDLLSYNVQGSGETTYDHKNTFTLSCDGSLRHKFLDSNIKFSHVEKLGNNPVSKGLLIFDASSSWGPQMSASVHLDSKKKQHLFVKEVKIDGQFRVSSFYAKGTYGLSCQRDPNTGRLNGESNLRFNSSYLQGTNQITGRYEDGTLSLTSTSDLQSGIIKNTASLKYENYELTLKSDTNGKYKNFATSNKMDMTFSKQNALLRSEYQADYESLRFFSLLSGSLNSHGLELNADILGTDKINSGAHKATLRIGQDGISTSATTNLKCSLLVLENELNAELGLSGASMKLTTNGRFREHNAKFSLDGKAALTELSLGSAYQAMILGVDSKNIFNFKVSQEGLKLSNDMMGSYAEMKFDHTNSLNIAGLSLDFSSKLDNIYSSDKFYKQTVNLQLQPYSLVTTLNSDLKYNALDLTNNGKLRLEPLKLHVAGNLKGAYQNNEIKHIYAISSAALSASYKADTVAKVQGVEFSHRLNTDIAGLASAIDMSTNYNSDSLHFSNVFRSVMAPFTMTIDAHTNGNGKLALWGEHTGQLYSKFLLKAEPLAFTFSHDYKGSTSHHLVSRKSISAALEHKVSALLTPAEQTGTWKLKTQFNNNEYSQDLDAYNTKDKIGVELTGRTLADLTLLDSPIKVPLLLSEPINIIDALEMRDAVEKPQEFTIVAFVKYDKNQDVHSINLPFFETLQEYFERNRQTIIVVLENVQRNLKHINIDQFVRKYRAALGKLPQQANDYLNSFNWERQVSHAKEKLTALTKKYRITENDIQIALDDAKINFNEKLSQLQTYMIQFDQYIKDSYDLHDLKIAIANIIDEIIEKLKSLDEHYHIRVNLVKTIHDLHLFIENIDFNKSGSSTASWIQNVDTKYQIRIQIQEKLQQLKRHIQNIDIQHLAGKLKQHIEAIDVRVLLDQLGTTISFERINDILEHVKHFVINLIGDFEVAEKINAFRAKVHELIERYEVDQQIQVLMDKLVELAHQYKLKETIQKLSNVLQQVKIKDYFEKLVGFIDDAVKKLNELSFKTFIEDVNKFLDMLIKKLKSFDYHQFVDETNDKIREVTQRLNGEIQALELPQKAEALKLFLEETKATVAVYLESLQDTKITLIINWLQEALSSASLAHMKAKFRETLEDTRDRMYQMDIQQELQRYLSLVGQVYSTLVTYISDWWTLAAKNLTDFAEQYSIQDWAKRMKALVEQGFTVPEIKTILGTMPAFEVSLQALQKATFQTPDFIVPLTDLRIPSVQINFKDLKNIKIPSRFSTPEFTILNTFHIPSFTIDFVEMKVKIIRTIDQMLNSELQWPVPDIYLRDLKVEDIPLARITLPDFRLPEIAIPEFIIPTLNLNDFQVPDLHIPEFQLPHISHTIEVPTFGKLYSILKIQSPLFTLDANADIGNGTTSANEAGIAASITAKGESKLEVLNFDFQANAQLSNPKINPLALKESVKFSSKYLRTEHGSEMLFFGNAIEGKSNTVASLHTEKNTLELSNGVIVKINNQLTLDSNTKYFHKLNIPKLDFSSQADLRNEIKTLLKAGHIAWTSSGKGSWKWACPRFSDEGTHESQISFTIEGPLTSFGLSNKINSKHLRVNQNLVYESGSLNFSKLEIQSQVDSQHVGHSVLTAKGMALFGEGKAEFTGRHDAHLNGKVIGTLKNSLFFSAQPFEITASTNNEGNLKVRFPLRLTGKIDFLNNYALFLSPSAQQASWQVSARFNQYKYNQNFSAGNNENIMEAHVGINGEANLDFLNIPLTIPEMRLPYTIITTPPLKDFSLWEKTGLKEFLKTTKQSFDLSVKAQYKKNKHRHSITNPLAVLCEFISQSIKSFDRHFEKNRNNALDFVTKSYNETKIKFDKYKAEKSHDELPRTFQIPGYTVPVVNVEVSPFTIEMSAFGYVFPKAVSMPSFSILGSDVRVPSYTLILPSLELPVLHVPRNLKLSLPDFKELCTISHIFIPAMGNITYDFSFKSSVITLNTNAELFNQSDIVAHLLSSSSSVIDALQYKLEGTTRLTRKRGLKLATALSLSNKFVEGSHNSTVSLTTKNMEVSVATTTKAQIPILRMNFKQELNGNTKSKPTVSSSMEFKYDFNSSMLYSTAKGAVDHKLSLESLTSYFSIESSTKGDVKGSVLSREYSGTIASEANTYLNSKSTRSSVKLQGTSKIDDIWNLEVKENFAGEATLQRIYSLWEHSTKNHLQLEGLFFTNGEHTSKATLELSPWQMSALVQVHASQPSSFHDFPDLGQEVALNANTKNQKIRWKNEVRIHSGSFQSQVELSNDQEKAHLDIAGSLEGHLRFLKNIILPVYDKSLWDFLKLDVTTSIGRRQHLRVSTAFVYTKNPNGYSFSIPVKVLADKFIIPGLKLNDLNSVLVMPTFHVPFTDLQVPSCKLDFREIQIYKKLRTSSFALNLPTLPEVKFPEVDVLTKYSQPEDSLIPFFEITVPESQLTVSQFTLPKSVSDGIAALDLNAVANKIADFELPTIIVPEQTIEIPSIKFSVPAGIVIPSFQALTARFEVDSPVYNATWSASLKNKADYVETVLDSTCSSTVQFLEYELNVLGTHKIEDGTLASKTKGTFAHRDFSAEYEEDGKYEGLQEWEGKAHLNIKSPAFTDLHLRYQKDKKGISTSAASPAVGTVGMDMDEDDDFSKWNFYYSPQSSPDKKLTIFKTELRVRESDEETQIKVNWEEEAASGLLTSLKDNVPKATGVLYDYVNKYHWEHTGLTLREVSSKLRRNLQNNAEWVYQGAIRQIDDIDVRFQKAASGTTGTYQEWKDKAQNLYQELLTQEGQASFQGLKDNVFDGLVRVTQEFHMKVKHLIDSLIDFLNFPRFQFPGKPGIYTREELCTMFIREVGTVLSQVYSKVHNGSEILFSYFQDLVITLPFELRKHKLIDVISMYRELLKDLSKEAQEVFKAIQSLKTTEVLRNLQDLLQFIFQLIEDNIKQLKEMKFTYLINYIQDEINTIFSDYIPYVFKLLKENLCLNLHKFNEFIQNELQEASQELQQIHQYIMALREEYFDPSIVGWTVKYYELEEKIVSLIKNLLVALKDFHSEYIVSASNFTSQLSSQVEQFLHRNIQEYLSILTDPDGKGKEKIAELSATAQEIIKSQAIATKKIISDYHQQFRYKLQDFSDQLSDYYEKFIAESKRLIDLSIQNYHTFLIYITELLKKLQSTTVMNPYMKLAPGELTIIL

Experiments:
oxidized LDL [1] = biological target: oxidized LDL (UniProt P04114); assay: lateral flow sandwich on sera of hyperlipidemic patients (oxidized LDL in serum); scFv test spot, QuartzDot-labeled CTLD14
oxidized LDL [2] = biological target: oxidized LDL (UniProt P04114); assay: lateral flow (immunochromatography) sandwich: anti-LDL scFv on the test spot captures oxidized LDL bound to QuartzDot-labeled CTLD14
oxidized LDL [3] = biological target: oxidized LDL (UniProt P04114); assay: lateral flow sandwich; oxidized LDL added to PBS with 0.5% BSA or to diluted serum; scFv test spot; Typhoon fluorescence
oxidized LDL [4] = biological target: oxidized LDL (UniProt P04114); assay: lateral flow sandwich in whole blood; full strip with blood cell removal filter; scFv test spot at different concentrations

Measured: binding

B1: anti-LDL single-chain antibody (scFv)
scFv: GAGTPVTAPLAGTIWKVLASEGQTVAAGEVLLILEAMKMETEIRAAQAGTVRGIAVKAGDAVAVGDTLMTLAMAQVQLQQSGPGLVKPSQTLSLTCAISGDSVSSRDAAWNWIRQSPSRGLEWLGRTYYRSEWYTDYAVSLESRLTVNPDTSRNQFSLQLNSVTPEDTAVYLCARGSSWGHAPAFFDYWGQGTLVTVSSGGGGSGGGGSGGGGSDIQMTQSPSSLSASVEDRVAITCRASQSVSTYVAWYQQKPGKAPKLLISQASSLENGVPSRFSGSGSGTDFTLTISSLQPEDFATYYCQQYTTYPYTFGQGTKLEIKR
binds: all assays above
